Assay: Picrate extraction, alkali metal ion complex association
Type: binding
Settings: in words; for affinity for alkali metal ions: lithium, sodium, potassium

SMILES | affinity for alkali metal ions | affinity for lithium ions | affinity for potassium ions versus sodium ions
O=S1(=O)CC#CCOc2ccccc2OCC#CC1 [Compound 2.10] | did not display measurable affinity | – | –
O=S1(=O)CC#CCOCCOCCOCCOCC#CC1 [Compound 2.12] | slight affinity | significant affinity | –
O=S1(=O)CC#CCOCCOCCOCCOCCOCC#CC1 [Compound 2.46] | – | – | bound potassium ions with greater affinity than sodium ions
O=S1(=O)CC#CCOCCOCCOCCOCCOCCOCC#CC1 [Compound 2.47] | – | slight affinity | bound potassium ions slightly better than sodium ions
O=S1(=O)CC#CCOCCOCCOCCOCCOCCOCCOCC#CC1 [Compound 2.48] | – | – | bound potassium with greater affinity than sodium ions
O=C(OCC1COCCOCCOCCOCCO1)c1ccc(CS(=O)(=O)CC#CCO)cc1 (centres unmarked) [Compound 3.2] | greater affinity for all alkali metal ions versus host 3.1 | – | –

Source: patent US20020155443A1, “Metal binding DNA interactive compounds” (priority 2000, published 2002)
